Results deposited as PubChem BioAssay AID686938 (Drosophila RNAi Screening Center, 2013)
Screen: 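Fly genes required for calcium entry once internal stores are emptied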 (primary screen). Cells: Drosophila S2R+ cells. Reagents: long dsRNA against Drosophila genes, about 0.25 µg dsRNA per well, roughly 10,000 cells. Time to read-out: 5 days of knock-down before the calcium assay. Treatment: thapsigargin (SERCA pump blocker) to empty calcium stores; entry signal taken 4 min after adding it. Read-out: 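Duplicate raw fluo-4 intensities per well from a plate reader, at rest and four minutes after thapsigargin emptied calcium stores; entry-to-rest ratio filled for only some wells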. Direction: calcium entry signal: higher = stronger calcium signal after store depletion; resting calcium signal: higher = higher resting calcium signal. Rule for the call: 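Hit if the duplicate-averaged plate z-score for entry over resting signal is under −3; wells with weak total dye signal (Fmax z < −2) or more than 5 off-targets removed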. Calls: active = strongly reduced calcium entry; inactive = no strong reduction.
The deposit covers about 23,000 reagents; below is a random part of those that have a named target and a result. Over the whole deposit, 75 (0.33%) were called active. 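Raw plate signals without normalisation; calls rest on plate z-scores that were not deposited; ratio present for only 364 wells.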 The numbers tell different reagents against one gene apart. Names joined by + are all predicted targets of the reagent. Not given: the dose of the treatment.

predicted target	dsRNA no.	calcium entry signal, replicate 1 (fluorescence units)	calcium entry signal, replicate 2 (fluorescence units)	resting calcium signal, replicate 1 (fluorescence units)	resting calcium signal, replicate 2 (fluorescence units)	Outcome
CG31897	1	3.48e7	5.54e7	1.89e7	2.48e7	inactive
mura	1	3.16e7	3.18e7	1.54e7	1.57e7	inactive
mura	2	1.56e7	1.94e7	1.01e7	1.30e7	inactive
mura	3	3.32e7	3.92e7	1.75e7	1.85e7	inactive
Spn42De	1	6.10e7	3.67e7	3.08e7	1.55e7	inactive
foxo	1	3.45e7	4.27e7	2.10e7	2.36e7	inactive
foxo	2	2.87e7	3.06e7	1.30e7	1.51e7	inactive
Rpn11	1	2.29e7	1.79e7	1.63e7	1.23e7	inactive
ND-24	1	4.18e7	4.43e7	1.85e7	2.01e7	inactive
CG43736	1	3.23e7	3.64e7	1.61e7	1.60e7	inactive
CG43736	2	3.55e7	3.52e7	1.74e7	1.60e7	inactive
CG3860	1	3.81e7		1.91e7		inactive
Ir7d	1	3.71e7	2.76e7	1.80e7	1.40e7	inactive
PGRP-LD + Pmi	1	3.07e7	2.32e7	2.33e7	9.82e6	inactive
PGRP-LD + Pmi	2	3.72e7	2.92e7	1.86e7	1.44e7	inactive
CG17134	1	2.49e7	3.68e7	1.23e7	1.54e7	inactive
CG42680	1	3.03e7	4.39e7	1.58e7	1.93e7	inactive
GABA-B-R2	1	2.55e7	3.91e7	1.29e7	1.88e7	inactive
UQCR-6.4	1	4.49e7	5.71e7	1.84e7	2.59e7	inactive
Irk3	1	6.41e7	2.93e7	2.90e7	1.23e7	inactive
elav	1	5.08e7	4.87e7	2.23e7	2.35e7	inactive
CG4612	1	3.53e7		1.95e7		inactive
beat-Ia	1	4.73e7	3.64e7	2.00e7	1.59e7	inactive
CG5597	1	3.85e7		1.79e7		inactive
CG7550	1	3.34e7	4.33e7	1.56e7	1.90e7	inactive
Hs2st	1	4.22e7		2.24e7		inactive
Dgk	1	3.42e7	3.46e7	1.68e7	1.60e7	inactive
Dgk	2	3.02e7	3.44e7	1.52e7	1.61e7	inactive
Dgk	3	5.59e7	3.31e7	2.17e7	1.46e7	inactive
Dgk	4	2.31e7	4.89e7	1.01e7	2.26e7	inactive
Dgk	5	3.80e7	5.72e7	1.99e7	2.74e7	inactive
Cyt-c-d	1	3.24e7	2.29e7	1.47e7	1.08e7	inactive
CG3104	1	2.58e7	3.77e7	1.26e7	1.81e7	inactive
Adk1	1	1.94e7	2.23e7	1.02e7	1.19e7	inactive
Ubr1	1	2.96e7	2.50e7	1.47e7	1.24e7	inactive
St2	1	4.68e7	3.51e7	2.13e7	1.73e7	inactive
St2	2	4.40e7	3.79e7	2.11e7	1.58e7	inactive
CG3732	1	3.43e7		1.63e7		inactive
CG14903	1	2.13e7	3.14e7	1.11e7	4.47e7	inactive
CG14840	1	2.50e7	3.03e7	1.17e7	3.86e7	inactive
arr	1	3.03e7	3.79e7	1.58e7	1.74e7	inactive
CG2070	1	3.41e7	3.97e7	1.74e7	1.72e7	inactive
Hsp60C	1	2.55e7	2.29e7	1.24e7	1.03e7	inactive
Nup58	1	3.22e7	2.84e7	6.60e7	1.40e7	inactive
zen	1	4.80e7	3.37e7	2.31e7	1.73e7	inactive
cer	1	4.64e7	5.37e7	2.08e7	2.53e7	inactive
l(3)psg2	1	3.74e7	2.33e7	2.70e7	1.03e7	inactive
TAF1C-like	1	3.73e7		1.92e7		inactive
AGO1	1	2.51e7	2.47e7	1.06e7	1.21e7	inactive
MED14	1	2.80e7	2.26e7	1.62e7	1.55e7	inactive
CG43059	1	2.71e7	3.70e7	1.51e7	1.67e7	inactive
Bdp1	1	2.99e7		1.48e7		inactive
Ant2	1	4.81e7	4.04e7	2.20e7	1.93e7	inactive
CG14110	1	2.77e7	4.57e7	1.42e7	1.86e7	inactive
EDTP	1	4.07e7	4.77e7	1.75e7	2.09e7	inactive
CG1503	1	3.16e7	3.53e7	1.48e7	1.61e7	inactive
Trxr2	1	3.04e7	5.30e7	1.49e7	2.40e7	inactive
CG11041	1	5.60e7	5.52e7	2.36e7	2.57e7	inactive
Mp	1	4.64e7	3.76e7	2.84e7	1.88e7	inactive
Mp	2	3.86e7	3.90e7	1.79e7	1.68e7	inactive
Mp	3	4.01e7	5.33e7	1.98e7	2.28e7	inactive
CG16956	1	3.35e7	2.15e7	1.45e7	1.06e7	inactive
CG18480	1	5.96e7		2.62e7		inactive
CG10920	1	3.36e7	2.94e7	1.63e7	1.48e7	inactive
LManIV	1	2.73e7	3.99e7	1.23e7	1.75e7	inactive
CG1113	1	3.34e7	1.91e7	1.49e7	1.03e7	inactive
CG44325	1	2.98e7	3.25e7	1.34e7	1.42e7	inactive
CG44325	2	3.23e7	2.92e7	1.40e7	1.41e7	inactive
Trmt61	1	3.98e7	5.19e7	2.16e7	2.07e7	inactive
CG12963	1	5.20e7	6.07e7	2.88e7	2.71e7	inactive
CG12963	2	4.25e7	3.54e7	2.16e7	1.61e7	inactive
CG31126	1	2.84e7	4.22e7	1.73e7	1.81e7	inactive
CG43103	1	3.05e7	4.05e7	1.40e7	1.84e7	inactive
Mob2	1	4.32e7	6.53e7	2.12e7	2.89e7	inactive
Mob2	2	4.78e7	5.52e7	2.45e7	2.30e7	inactive
Mob2	3	4.23e7	2.65e7	2.64e7	1.35e7	inactive
Mob2	4	4.21e7	4.08e7	1.92e7	1.64e7	inactive

Part of the list above in another layout:
{"predicted target": "CG17134", "dsRNA no.": 1, "calcium entry signal, replicate 1 (fluorescence units)": 2.49e7, "calcium entry signal, replicate 2 (fluorescence units)": 3.68e7, "resting calcium signal, replicate 1 (fluorescence units)": 1.23e7, "resting calcium signal, replicate 2 (fluorescence units)": 1.54e7, "Outcome": "inactive"}
{"predicted target": "CG42680", "dsRNA no.": 1, "calcium entry signal, replicate 1 (fluorescence units)": 3.03e7, "calcium entry signal, replicate 2 (fluorescence units)": 4.39e7, "resting calcium signal, replicate 1 (fluorescence units)": 1.58e7, "resting calcium signal, replicate 2 (fluorescence units)": 1.93e7, "Outcome": "inactive"}
{"predicted target": "GABA-B-R2", "dsRNA no.": 1, "calcium entry signal, replicate 1 (fluorescence units)": 2.55e7, "calcium entry signal, replicate 2 (fluorescence units)": 3.91e7, "resting calcium signal, replicate 1 (fluorescence units)": 1.29e7, "resting calcium signal, replicate 2 (fluorescence units)": 1.88e7, "Outcome": "inactive"}
{"predicted target": "UQCR-6.4", "dsRNA no.": 1, "calcium entry signal, replicate 1 (fluorescence units)": 4.49e7, "calcium entry signal, replicate 2 (fluorescence units)": 5.71e7, "resting calcium signal, replicate 1 (fluorescence units)": 1.84e7, "resting calcium signal, replicate 2 (fluorescence units)": 2.59e7, "Outcome": "inactive"}
{"predicted target": "Irk3", "dsRNA no.": 1, "calcium entry signal, replicate 1 (fluorescence units)": 6.41e7, "calcium entry signal, replicate 2 (fluorescence units)": 2.93e7, "resting calcium signal, replicate 1 (fluorescence units)": 2.90e7, "resting calcium signal, replicate 2 (fluorescence units)": 1.23e7, "Outcome": "inactive"}
